Our source for the binding values is publication PMC9598724.

Results are given in words; binding and its absence hold for the method and conditions named. Binding can be weak; no strength is given.

For the experiment, the target named is human β-tubulin (human). Put plainly: ELISA; solid-phase binding assay: 50 ng human β-tubulin or α-tubulin coated on ELISA plates in carbonate-bicarbonate buffer pH 9.5, blocked with 3% BSA; rOlyA, mutants or OlyA6-mCherry added in TBS, 1 h at 37 °C; rabbit anti-rOlyA and goat anti-rabbit IgG-HRP, OD 450 nm; both purified. (In an ELISA, binding on a coated surface is turned into a signal by an enzyme label.)

B1: rOlyA point mutant W96A (protein, UniProt P83467 1-138)
chain: MAYAQWVIIIIHNVGSQDVKIKNLKASWGKLHADGDKDAEVSASNYEGKIIKPDEKLQINACGRSDAAEGTTGTFDLVDPADGDKQVRHFYWDCPAGSKTNTWTVSGSNTKWMIEYSGQNLDSGALGTITVDTLKKGN
As for B1, the binding entry is listed as “binds”.
